The source of these data is PubChem BioAssay AID2685 (National Center for Advancing Translational Sciences (NCATS), 2010).

Some of the results follow. These are further read-outs of the screen, such as a control signal, another cell line or another target. No call is given for them. Most of these compounds were active or inconclusive in the main read-out, so they are no random draw. Potencies come from curve fits of mixed quality, noted in brackets.

The nature of the assay: qHTS Assay for Lipid Storage Modulators in Drosophila S3 Cells.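 As to cell number change: cells counted by Cell Tracker Red CMTPX staining in the red channel.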 To be noted: BODIPY lipid droplet fluorescence, 18-24 h; for cell number change: measured here: cell count max response, cells fed with added oleic acid. The essentials: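 Drosophila S3 cells got compounds at several concentrations plus oleic acid (400 uM solution). Laser-scanning cytometry with 488 nm excitation read lipid droplets at 500-530 nm and cells at 575-640 nm. Percent activity was relative to 20 uM Triacsin C.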

Setting [1] is: measured here: cell number channel AC50, cells fed with added oleic acid.
Where [2] appears, read: measured here: lipid fluorescence (Fed channel) AC50, cells fed with added oleic acid.

`C=C(Cl)COc1ccc2c(CCC)cc(=O)oc2c1`: the cell number change was determined as 104%. Moreover, the AC50 under setting [1] was 1.3 µM [rising, full curve]. Further, the AC50 under setting [2] is 0.58 µM [rising, full curve].
As to `Cc1cccc(C)c1OCCCCN1CCCCC1`, the cell number change came to 0.246%. Also, under setting [2], the half-maximal activity concentration (AC50) is 0.291 µM [rising, partial curve, poor fit].
As for `Oc1ccc(C[C@@H]2CNCCN2CCc2cc(C(F)(F)F)cc(C(F)(F)F)c2)cc1`, the cell number change was -76%. The AC50 under setting [1] was 25.9 µM [falling, single point]. Also, the AC50 under setting [2] was 29.1 µM [falling, single point].
With `COC(=O)C1=C(CCc2ccccc2)NC(=O)NC1c1ccc(Br)cc1` (stereo not drawn), the cell number change stood at 0.898%. Moreover, the concentration at half-maximal activity (AC50) under setting [2] is 29.1 µM [falling, single point].
On to `Cc1nc2ccccc2c(=O)n1/N=C/c1cccs1`, for which the cell number change was 0.261%. Under setting [1], the AC50 was 0.103 µM [falling, full curve, poor fit].
Turning to `NC(=NC(=O)c1ccccc1)N1N=CCC1c1ccccc1` (stereo not drawn), the cell number change worked out at 17.3%.
On to `CCNc1nc(SCC(N)=O)nc2sc3c(c12)CCN(C)C3`, for which the cell number change amounted to 45.8%. The AC50 under setting [1] was 23.1 µM [rising, single point].
In the case of `O=S(=O)(c1ccc2c(c1)OCCO2)N1CCC(c2nc3ccccc3[nH]2)CC1`, the cell number change was -1.72%.
Consider `O=C(Cn1nc(Cl)nc1Cl)c1ccc([N+](=O)[O-])cc1`, for which the cell number change was -66.2%. Moreover, under setting [1], the AC50 was 23.1 µM [falling, single point]. In addition, the concentration at half-maximal activity (AC50) under setting [2] is 16.4 µM [falling, partial curve].
As to `COc1ccc(N=C2SC(C(N)=O)CC(=O)N2Cc2ccc3c(c2)OCO3)cc1` (stereo not drawn), the cell number change turned out to be 5.84%. Besides, under setting [2], the half-maximal activity concentration (AC50) is 1.84 µM [rising, full curve, poor fit].
As for `Cc1ccc(-n2c(-c3ccc(Cl)cc3)n[nH]c2=S)c(C)c1`, the cell number change stood at 11.9%. The AC50 under setting [1] is 0.00461 µM [rising, full curve, poor fit]. Also, the AC50 under setting [2] was 6.51 µM [falling, single point].
For the molecule `CC(C1CC1)N(Cc1ccccc1)C(=S)Nc1ccccc1` (stereo not drawn), the cell number change was 18.8%. Besides, under setting [1], the AC50 was 0.92 µM [rising, full curve, poor fit]. Besides, the AC50 under setting [2] was 0.92 µM [rising, full curve].
As to `COc1ccc(NC(=O)Nc2cc(F)ccc2C)cc1`, the concentration at half-maximal activity (AC50) under setting [1] is 6.51 µM [rising, single point] and the concentration at half-maximal activity (AC50) under setting [2] is 4.11 µM [rising, partial curve].
Take `CC(C)CNC(=O)COC(=O)/C=C/c1ccco1`: the cell number change stood at 54.2%. The AC50 under setting [1] is 20.6 µM [rising, single point]. Also, the AC50 under setting [2] is 20.6 µM [rising, single point].
Consider `c1ccc(Nc2cccc(Nc3ccccc3)c2)cc1`, for which the cell number change is -34.6%. In addition, the AC50 under setting [1] was 32.6 µM [falling, single point].
Turning to `COC(=O)C1=C(CS(=O)(=O)c2ccccc2)NC(=O)NC1c1ccccc1` (stereo not drawn), the cell number change is -9.85%. The AC50 under setting [2] is 0.58 µM [rising, single point].
As to `CCOC(=O)/C(=C/C=C1\Sc2ccccc2N1CC)C(C)=O`, the cell number change was -40.3%. The AC50 under setting [1] was 20.6 µM [falling, single point]. In addition, the concentration at half-maximal activity (AC50) under setting [2] was 14.6 µM [falling, partial curve].
`CCC(C)Sc1ccc([C@@H]2[C@H]3C(=O)N(CC)C(=O)[C@H]3[C@]3(C(=O)OC)CCCCN23)cc1` (stereo partly drawn): the cell number change is -32.7%. Besides, the AC50 under setting [1] is 18.4 µM [falling, single point].
Regarding `CCOc1ccc(S(=O)(=O)N2CCCCC2)cc1NC(=O)CC1OC(=O)c2ccccc21` (stereo not drawn), the cell number change is 66.8%. Besides, under setting [1], the half-maximal activity concentration (AC50) was 2.59 µM [rising, partial curve]. Moreover, the half-maximal activity concentration (AC50) under setting [2] is 1.16 µM [rising, full curve].
In the case of `COc1ccc(-c2nnn(CC(=O)N3CCOCC3)n2)cc1`, the cell number change came out at 14.7%. Further, under setting [2], the AC50 is 3.66 µM [falling, full curve, poor fit].
For the molecule `CCN(C(=O)CSc1nc(-c2ccccc2)c(-c2ccccc2)[nH]1)C1CCS(=O)(=O)C1` (stereo not drawn), the cell number change is -75.4%. Further, the half-maximal activity concentration (AC50) under setting [1] is 29.1 µM [falling, single point]. For the same molecule, under setting [2], the concentration at half-maximal activity (AC50) was 29.1 µM [falling, single point].
With `O=C(CCS(=O)(=O)c1ccc(Br)cc1)Nc1ccc(Cl)cc1F`, under setting [2], the concentration at half-maximal activity (AC50) is 0.651 µM [rising, full curve].
Regarding `O=C(Nc1ccc(CN2CCOCC2)cc1)c1ccco1`, the cell number change is -3.04%.
In the case of `O=C1CCC(C(=O)OC(C(=O)Nc2cc(Cl)cc(Cl)c2)c2ccccc2)=NN1` (stereo not drawn), the cell number change was -15.8%. For the same molecule, the AC50 under setting [2] was 29.1 µM [falling, single point].
Turning to `O=C(Nc1ccc(-c2nc3ncccc3o2)cc1)c1ccc(Br)o1`, the cell number change is -68.8%. In addition, under setting [1], the AC50 was 23.1 µM [falling, single point]. In addition, under setting [2], the half-maximal activity concentration (AC50) is 18.4 µM [falling, single point].
In the case of `O=C(CSc1nnc(CNC(=O)c2c(F)cccc2F)o1)NCCc1ccccc1`, the cell number change was -38.6%. Moreover, under setting [1], the AC50 was 14.1 µM [falling, single point]. Also, under setting [2], the AC50 was 35.5 µM [falling, single point].
With `O=C(Cc1coc2ccc3ccccc3c12)N1CCN(c2ncccn2)CC1`, the cell number change was determined as 19.4%. The AC50 under setting [1] is 1.64 µM [rising, partial curve, poor fit]. Moreover, the half-maximal activity concentration (AC50) under setting [2] is 3.26 µM [rising, partial curve].
Regarding `COc1ccc(NC(=O)Nc2nnc(N3CCC(C)CC3)s2)cc1OC`, the cell number change was determined as 10%. Under setting [2], the AC50 is 4.11 µM [rising, partial curve].
As for `CCCN1CCN(CCCNC(=O)c2cc3c(s2)-c2ccccc2OC3)CC1`, the cell number change is -1.9%. Moreover, under setting [2], the AC50 was 2.59 µM [rising, partial curve].
In the case of `COc1ccc2nc(NC(=O)CN(C)S(=O)(=O)c3cccs3)sc2c1`, the concentration at half-maximal activity (AC50) is, setting by setting: under setting [1], 6.51 µM [rising, single point]; under setting [2], 6.51 µM [rising, single point].
For `O=C(CN(Cc1ccc(Cl)c(Cl)c1)S(=O)(=O)c1ccccc1)N/N=C\c1ccc2c(c1)OCO2`, the cell number change is -12.1%.
On to `c1ccc(C(c2nnnn2Cc2cccs2)N2CCN(C3CCCC3)CC2)cc1` (stereo not drawn), for which the cell number change is -76.9%. In addition, the AC50 under setting [1] is 32.6 µM [falling, partial curve]. For the same molecule, the half-maximal activity concentration (AC50) under setting [2] is 0.651 µM [falling, single point].
Consider `O=C1NC(=S)S/C1=C\c1ccc(SCc2ccccc2)o1`, for which the cell number change is -18.4%. For the same molecule, under setting [2], the AC50 was 1.16 µM [rising, single point].
For `Cc1ccc(OCC(=O)NNC(=S)NCc2ccccc2)cc1`, the cell number change was -35.7%. In addition, the AC50 under setting [1] is 16.4 µM [falling, single point]. The AC50 under setting [2] is 16.4 µM [falling, single point].
In the case of `CCCCCc1cc(O)c2c(C)cc(=O)oc2c1`, under setting [2], the half-maximal activity concentration (AC50) was 2.31 µM [falling, partial curve].
Take `Cc1ccccc1OC(C)C(=O)NCc1cccnc1` (stereo not drawn): the cell number change is -14.3%. The AC50 under setting [1] is 0.651 µM [rising, single point]. For the same molecule, the AC50 under setting [2] is 0.731 µM [rising, partial curve, poor fit].
As to `COc1cccc(OCc2cc(/C=N/NC(=O)c3nc(Cl)c(Cl)c(N)c3Cl)ccc2OC)c1`, the cell number change is 17.2%. For the same molecule, the AC50 under setting [2] was 1.64 µM [rising, full curve].
Regarding `CCCC(C(=O)NC1CCCC1)N(Cc1ccccc1Cl)C(=O)c1snc(C(N)=O)c1N` (stereo not drawn), the cell number change came to 0.87%. In addition, the concentration at half-maximal activity (AC50) under setting [2] is 6.51 µM [rising, single point].
`Cn1c(CS(=O)Cc2c(Cl)cccc2Cl)nnc1SCc1c(Cl)cccc1Cl` (stereo not drawn): the cell number change stood at 65.8%. Moreover, under setting [1], the AC50 was 3.66 µM [rising, full curve]. Also, the half-maximal activity concentration (AC50) under setting [2] is 2.31 µM [rising, full curve].
Turning to `Cc1cc(NC(=O)c2c(F)cccc2F)n(-c2nc3ccccc3[nH]2)n1`, the cell number change amounted to 45.9%. Moreover, the AC50 under setting [1] was 29.1 µM [rising, single point]. Further, the AC50 under setting [2] is 23.1 µM [rising, partial curve].
As to `O=C(NC1CCCC1)C(c1ccncc1)N(C(=O)c1csnn1)c1cccc(F)c1` (stereo not drawn), the cell number change was -9.52%.
As for `O=C(c1cccc(Cl)c1)N1CCC(=O)N(C(COCc2cccc(Cl)c2)Cc2ccccc2)CC1` (stereo not drawn), the cell number change came out at 3.8%. For the same molecule, the AC50 under setting [2] was 3.26 µM [falling, single point].
Turning to `Cc1ccccc1NC(=O)CN1C(=O)S/C(=C\c2ccc(-c3cccc(C(=O)O)c3C)o2)C1=O`, under setting [1], the AC50 is 0.731 µM [falling, single point].
Consider `CC(=O)Nc1ccc(S(=O)(=O)N(C)CC(=O)OCC(=O)Nc2cccnc2Cl)cc1`, for which the cell number change was -17.8%. For the same molecule, the AC50 under setting [2] was 0.00461 µM [falling, full curve, poor fit].
Take `Clc1cccc(-c2sc(Nc3ccccc3)n[n+]2-c2ccccc2)c1Cl`: the cell number change is -18.4%.
As for `CN(C)CCCN(C(=O)CCc1ccccc1)c1nc2ccc(Br)cc2s1`, the cell number change was -32.6%. Besides, the concentration at half-maximal activity (AC50) under setting [1] is 29.1 µM [falling, single point]. In addition, the AC50 under setting [2] is 29.1 µM [falling, single point].
In the case of `O=C(CSc1nc2ccccc2[nH]1)Nc1c(F)cccc1F`, the cell number change came out at 22.5%.
For `CCCC(=O)Nc1nc2ccc(C(=O)OCC)cc2s1`, the cell number change was -12.5%. Moreover, the AC50 under setting [2] is 7.31 µM [falling, partial curve].
With `O=C(N/N=C/C=C/c1ccccc1)NC1CCCCC1`, the concentration at half-maximal activity (AC50) under setting [1] was 0.651 µM [rising, single point].
In the case of `CCOC(=O)c1c(C)n(C)c2ccc(OCC(O)Cn3nc(C)c(Br)c3C)cc12` (stereo not drawn), the cell number change was -29.4%. For the same molecule, the AC50 under setting [2] is 25.9 µM [falling, single point].
`COc1ccc(N2CCN(C(=O)Cc3ccc(S(=O)(=O)N4CCOCC4)s3)CC2)cc1`: the cell number change came to 36.1%. In addition, the AC50 under setting [1] was 23.1 µM [rising, single point]. Moreover, the AC50 under setting [2] is 3.26 µM [rising, full curve].
On to `COc1cccc(NC(=S)N2CCN(S(C)(=O)=O)CC2)c1`, for which the cell number change is 8.67%. Further, the half-maximal activity concentration (AC50) under setting [2] is 23.1 µM [rising, partial curve, poor fit].
As for `CCOc1ccc(S(=O)(=O)NCCC2=CCCCC2)c2ccccc12`, the cell number change is -31.7%. Moreover, the concentration at half-maximal activity (AC50) under setting [2] was 29.1 µM [falling, single point].
Turning to `C=CCNc1sc(C(=O)c2ccccc2)c(N)c1-c1nc2ccccc2s1`, the cell number change is -83%. The concentration at half-maximal activity (AC50) under setting [1] is 29.1 µM [falling, single point].
As for `COc1cc(CNS(=O)(=O)CCl)cc(OC)c1OC`, the cell number change was determined as 9.15%. Besides, the AC50 under setting [2] is 0.116 µM [rising, partial curve, poor fit].

As a reminder, the AC50 is the midpoint of the concentration-response curve, whichever way the signal moves. Read a low AC50 as greater potency.
